Laboratory results from patent publication US7696233B2, “Method for controlling particular insect pests by applying anthranilamide compounds” (E. I. du Pont de Nemours and Company, priority 2001, dated 2010).
Some of these results come from one statement about several compounds together.

Columns and labels:
[1] = test system: fall armyworm (Spodoptera frugiperda); assay: Test A: control of fall armyworm, foliar spray on corn; assay type: in vivo; details: sprayed at 50 ppm, visually assessed after 6 days
[2] = test system: beet armyworm (Spodoptera exigua); assay: Test C: control of beet armyworm, foliar spray on corn; assay type: in vivo; details: sprayed at 50 ppm, visually rated after 6 days

Compound | feeding damage (excellent levels of plant protection) [1] [%] | feeding damage (excellent levels of plant protection) [2] [%]
Cc1cc(C(=O)Nc2c(C)cccc2C(=O)NC(C)C)n(-c2ccccc2)n1 [Compound 5] | ≤ 10 | ≤ 10
Cc1cccc(C(=O)NC(C)C)c1NC(=O)c1cc(C(F)(F)F)nn1-c1ccccc1 [Compound 19] | ≤ 10 | ≤ 10
Cc1cccc(C(=O)NC(C)C)c1NC(=O)c1cc(C(F)(F)F)nn1-c1ccccn1 [Compound 30] | ≤ 10 | –
Cc1cccc(C(=O)NC(C)C)c1NC(=O)c1cc(C(F)(F)F)nn1-c1ncccn1 [Compound 38] | ≤ 10 | ≤ 10
Cc1cccc(C(=O)NC(C)C)c1NC(=O)c1cc(C(F)(F)C(F)(F)F)nn1-c1ccccc1 [Compound 40] | ≤ 10 | –
CC(C)NC(=O)c1cccc(Cl)c1NC(=O)c1cc(C(F)(F)F)nn1-c1cccc(Cl)c1 [Compound 45] | ≤ 10 | –
CCC(C)NC(=O)c1cccc(Cl)c1NC(=O)c1cc(C(F)(F)F)nn1-c1ccccc1 (stereo not drawn) [Compound 63] | ≤ 10 | ≤ 10
O=C(NC1CC1)c1cccc(Cl)c1NC(=O)c1cc(C(F)(F)F)nn1-c1ccccc1 [Compound 64] | ≤ 10 | ≤ 10
Cc1cccc(C(=O)NC(C)C)c1NC(=O)c1cc(C(F)(F)F)nn1-c1ccnc2ccccc12 [Compound 92] | – | ≤ 10
CCc1ccccc1-n1nc(C(F)(F)F)cc1C(=O)Nc1c(Cl)cccc1C(=O)NC(C)C [Compound 97] | ≤ 10 | ≤ 10
CC(C)NC(=O)c1ccccc1NC(=O)c1cc(C(F)(F)F)nn1-c1ccccc1Cl [Compound 98] | ≤ 10 | ≤ 10
CC(C)(C)NC(=O)c1ccccc1NC(=O)c1cc(C(F)(F)F)nn1-c1ccccc1Cl [Compound 99] | ≤ 10 | ≤ 10
CSCC(C)NC(=O)c1ccccc1NC(=O)c1cc(C(F)(F)F)nn1-c1ccccc1Cl (stereo not drawn) [Compound 101] | – | ≤ 10
CSCC(C)NC(=O)c1cccc(Cl)c1NC(=O)c1cc(C(F)(F)F)nn1-c1ccccc1 (stereo not drawn) [Compound 102] | – | ≤ 10
C#CCNC(=O)c1cccc(Cl)c1NC(=O)c1cc(C(F)(F)F)nn1-c1ccccc1 [Compound 108] | ≤ 10 | –
CSCC(C)NC(=O)c1cccc(C)c1NC(=O)c1cc(C(F)(F)F)nn1-c1ccccc1 (stereo not drawn) [Compound 127] | ≤ 10 | ≤ 10
COCC(C)NC(=O)c1cccc(C)c1NC(=O)c1cc(C(F)(F)F)nn1-c1ccccc1 (stereo not drawn) [Compound 128] | ≤ 10 | ≤ 10
CCC(C)NC(=O)c1cccc(C)c1NC(=O)c1cc(C(F)(F)F)nn1-c1ccccc1 (stereo not drawn) [Compound 129] | ≤ 10 | ≤ 10
Cc1cccc(C(=O)NC2CC2)c1NC(=O)c1cc(C(F)(F)F)nn1-c1ccccc1 [Compound 130] | ≤ 10 | ≤ 10
CNC(=O)c1cccc(C)c1NC(=O)c1cc(C(F)(F)F)nn1-c1ccccc1 [Compound 133] | ≤ 10 | ≤ 10

Compound | feeding damage (excellent levels of plant protection) [1] [%] | feeding damage (excellent levels of plant protection) [2] [%]
C#CCNC(=O)c1cccc(C)c1NC(=O)c1cc(C(F)(F)F)nn1-c1ccccc1 [Compound 135] | ≤ 10 | ≤ 10
CCNC(=O)c1cccc(C)c1NC(=O)c1cc(C(F)(F)F)nn1-c1ccccc1 [Compound 136] | ≤ 10 | ≤ 10
C=CCNC(=O)c1ccc(C)cc1NC(=O)c1cc(C(F)(F)F)nn1-c1ccccc1 [Compound 137] | – | ≤ 10
COc1ccccc1-n1nc(C(F)(F)F)cc1C(=O)Nc1c(C)cccc1C(=O)NC(C)C [Compound 144] | ≤ 10 | ≤ 10
Cc1cccc(C(=O)NC(C)C)c1NC(=O)c1cc(C(F)(F)F)nn1-c1nccc2ccccc12 [Compound 146] | – | ≤ 10
COCC(C)NC(=O)c1cccc(Cl)c1NC(=O)c1cc(C(F)(F)F)nn1-c1ccccc1Cl (stereo not drawn) [Compound 148] | ≤ 10 | ≤ 10
CCC(C)NC(=O)c1cccc(Cl)c1NC(=O)c1cc(C(F)(F)F)nn1-c1ccccc1Cl (stereo not drawn) [Compound 149] | ≤ 10 | ≤ 10
C=CCNC(=O)c1cccc(Cl)c1NC(=O)c1cc(C(F)(F)F)nn1-c1ccccc1Cl [Compound 157] | ≤ 10 | ≤ 10
CCN(CC)C(=O)c1cccc(C)c1NC(=O)c1cc(C(F)(F)F)nn1-c1ccccc1Cl [Compound 188] | ≤ 10 | ≤ 10
Cc1ccc(-n2nc(C(F)(F)F)cc2C(=O)Nc2c(C)cccc2C(=O)NC(C)C)c(C)c1 [Compound 259] | ≤ 10 | –
Cc1cccc(C(=O)NC(C)C)c1NC(=O)c1cc(C(F)(F)F)nn1-c1nccc2cc(Cl)ccc12 [Compound 268] | ≤ 10 | –
Cc1cccc(C(=O)NC(C)C)c1NC(=O)c1cc(C(F)(F)F)nn1-c1c(Cl)cc(C(F)(F)F)cc1Cl [Compound 329] | ≤ 10 | –
CC(C)NC(=O)c1cc(I)ccc1NC(=O)c1cc(C(F)(F)F)nn1-c1ccccc1Cl [Compound 335] | ≤ 10 | –
N#CCNC(=O)c1cccc(Cl)c1NC(=O)c1cc(C(F)(F)F)nn1-c1cccc(Cl)c1Cl [Compound 343] | – | ≤ 10
Cc1ccnc(-n2nc(C(F)(F)F)cc2C(=O)Nc2c(C)cccc2C(=O)NC(C)(C)C)n1 [Compound 380] | – | ≤ 10
Cc1cccc(C(=O)NC(C)CO)c1NC(=O)c1cc(C(F)(F)F)nn1-c1ccccc1Cl (stereo not drawn) [Compound 389] | – | ≤ 10
Cc1ncnc(-n2nc(C(F)(F)F)cc2C(=O)Nc2c(Cl)cccc2C(=O)NC(C)C)c1C [Compound 396] | ≤ 10 | –
Cc1nn(C)c(-n2nc(C(F)(F)F)cc2C(=O)Nc2c(Cl)cccc2C(=O)NC(C)C)c1Cl [Compound 426] | ≤ 10 | –
Cn1nccc1-n1nc(C(F)(F)F)cc1C(=O)Nc1c(Cl)cccc1C(=O)NC(C)(C)C [Compound 463] | ≤ 10 | –
CNC(=O)c1cccc(C(F)(F)F)c1NC(=O)c1cc(C(F)(F)F)nn1-c1ncccc1Cl [Compound 756] | ≤ 10 | –

Compound | feeding damage (excellent levels of plant protection) [1] [%] | feeding damage (excellent levels of plant protection) [2] [%]
CC(C)NC(=O)c1cccc(C(F)(F)F)c1NC(=O)c1cc(C(F)(F)F)nn1-c1ncccc1Cl [Compound 757] | ≤ 10 | –
CNC(=O)c1cccc(F)c1NC(=O)c1cc(Br)nn1-c1ncccc1Cl [Compound 762] | ≤ 10 | –
CC(C)NC(=O)c1cccc(F)c1NC(=O)c1cc(Br)nn1-c1ncccc1Cl [Compound 763] | ≤ 10 | –
CN(C)C(=O)c1cc(F)cc(F)c1NC(=O)c1cc(Br)nn1-c1ncccc1Cl [Compound 772] | ≤ 10 | –
CN(C)C(=O)c1cc(Cl)cc(F)c1NC(=O)c1cc(Br)nn1-c1ncccc1Cl [Compound 775] | ≤ 10 | –
CN(C)C(=O)c1cc(F)cc(F)c1NC(=O)c1cc(Cl)nn1-c1ncccc1Cl [Compound 782] | ≤ 10 | –
CC(C)NC(=O)c1cccc(F)c1NC(=O)c1cc(OCC(F)(F)F)nn1-c1ncccc1Cl [Compound 790] | ≤ 10 | –
CN(C)C(=O)c1cc(Br)cc(F)c1NC(=O)c1cc(Br)nn1-c1ncccc1Cl [Compound 792] | ≤ 10 | –
CN(C)C(=O)c1cc(Br)cc(F)c1NC(=O)c1cc(Cl)nn1-c1ncccc1Cl [Compound 795] | ≤ 10 | –
CNC(=O)c1cc(Br)cc(F)c1NC(=O)c1cc(OCC(F)(F)F)nn1-c1ncccc1Cl [Compound 797] | ≤ 10 | –
CN(C)C(=O)c1cc(Br)cc(F)c1NC(=O)c1cc(OCC(F)(F)F)nn1-c1ncccc1Cl [Compound 798] | ≤ 10 | –
Cc1cc(Cl)cc(C(=O)NC(C)C)c1NC(=O)c1cc(C(F)(F)F)nn1-c1noc(C)c1Cl [Compound 801] | ≤ 10 | –
Cc1cc(Cl)cc(C(=O)NC(C)C)c1NC(=O)c1cc(C(F)(F)F)nn1-c1nocc1Cl [Compound 804] | ≤ 10 | –
CNC(=O)c1cc(Cl)cc(Cl)c1NC(=O)c1cc(C(F)(F)F)nn1-c1c(Cl)cnn1C [Compound 816] | ≤ 10 | –
CCNC(=O)c1cc(Cl)cc(Cl)c1NC(=O)c1cc(C(F)(F)F)nn1-c1c(Cl)cnn1C [Compound 817] | ≤ 10 | –
CC(C)NC(=O)c1cc(Cl)cc(Cl)c1NC(=O)c1cc(C(F)(F)F)nn1-c1c(Cl)cnn1C [Compound 818] | ≤ 10 | –
Cn1ncc(Cl)c1-n1nc(C(F)(F)F)cc1C(=O)Nc1c(Cl)cc(Cl)cc1C(=O)NC(C)(C)C [Compound 820] | ≤ 10 | –
CC(C)NC(=O)c1cc(F)cc(F)c1NC(=O)c1cc(F)nn1-c1ncccc1Cl [Compound 829] | ≤ 10 | –
